Source: PubChem BioAssay AID504467 (National Center for Advancing Translational Sciences (NCATS), 2011)
Hit rate of the full screen: of about 330,000 compounds, about 7,700 (2.3%) were called active. Inconclusive means that the source gave no clear call. Such entries were picked first, then a sample of the others. Calls come from the whole dose curve; as a rule, active = well fitted inhibition curve with a large enough effect; inconclusive = small, poorly fitted or top-dose-only effect, or effect the other way; inactive = flat fitted curve, though single readings scatter. Potencies beside an inconclusive call are fits to weak or partial responses and may not hold up.

Assay: qHTS screen for small molecules that inhibit ELG1-dependent DNA repair in human embryonic kidney (HEK293T) cells expressing luciferase-tagged ELG1; note: nearly all actives have a fitted effect of over 55% in size
Details: HEK293T ELG1-luciferase reporter, luminescence, 16 h, DNA damage induced by 5-fluorouridine; series mostly up to 46.1 µM
Procedure, shortened: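 HEK293T cells expressing luciferase-tagged ELG1 (2,000/well) received 5-Fluorouridine plus compound or DMSO for 16 hr at 37 °C. Luciferase was read by ONE-Glo luminescence after 30 min at room temperature.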
Potency is the fitted concentration of half-maximal effect.

SMILES	Potency
C=CCn1c2ccccc2c(=O)c2cc(C#CC3(O)CCCCC3)ccc21	inconclusive: 1.03 µM [activator, partial curve, poor fit]
CNC(=O)CCn1nc(-c2ccc(C)cc2)c2ccccc2c1=O	inactive
CCOC(=O)c1ccccc1NC(=O)COC(=O)C(CC(C)C)NC(N)=O (centres undefined)	inactive
CC1CCc2c(sc(/N=C/N(C)C)c2C#N)C1 (centres undefined)	inconclusive: 14.6 µM [activator, partial curve]
COc1cc(/C=N/NC(=S)Nc2cccc(S(=O)(=O)N(C)C)c2)ccc1O	inconclusive: 29.1 µM [inhibitor, single point]
COc1ccc(NC(=S)N2CCN(c3ccccn3)CC2)cc1OC	inactive
COc1ccc(C(=O)/C=C/C(=O)N(CC(=O)NC2CCCCC2)Cc2ccccc2)c(O)c1	inconclusive: 29.1 µM [inhibitor, single point]
N#Cc1ccccc1Sc1ccccc1C(=O)OCC(=O)NC12CC3CC(CC(C3)C1)C2	active: 20.6 µM
Cc1cccc(NC(=S)NNC(=O)c2ccc3c(c2)OCO3)c1	inconclusive: 8.2 µM [activator, partial curve]
O=C1C=C(c2ccc(-c3ccccc3)cc2)C[C@@H](c2ccc(F)cc2)C1	inconclusive: 20.6 µM [inhibitor, single point]
O=[N+]([O-])c1cccc(-c2n[nH]c(=S)n2-c2ccc(Br)cc2)c1	inactive
CC(C)c1ccc(CC(NC(=O)c2ccccc2)C(=O)NCC(=O)O)cc1 (centres undefined)	inactive
C/C(=N/OC(=O)c1c(-c2ccccc2Cl)noc1C)c1cnccn1	inactive
COc1ccc(CSCC(=O)N/N=C/c2ccccc2O)cc1	inconclusive: 6.51 µM [inhibitor, partial curve, poor fit]
O=C(Nc1cccc(-c2cccc(F)c2)c1)C1CCN(C2CCOCC2)CC1	inactive
CC(=O)Nc1ccc(OC(F)(F)C(F)F)c(NC(C)=O)c1	inactive
COc1cc2c(cc1OC)-c1cc(Nc3ccc(N(C)C)cc3)nc(=O)n1CC2	inconclusive: 32.6 µM [inhibitor, single point]
CCOC(=O)c1cccc(NC(=O)CSc2nnc(-c3ccoc3C)n2CCOC)c1	inconclusive: 29.1 µM [inhibitor, single point]
O=C1N=C(N2CCOCC2)S/C1=C\c1ccncc1	inactive
COCCn1cnc2c1c(=O)n(Cc1ccc(C#N)cc1)c(=O)n2Cc1ccccc1	inactive
CSc1ncccc1C(=O)N1CCN(S(=O)(=O)c2ccc(F)cc2)CC1	inactive
CN(CC(=O)Nc1ccc(Cl)c(S(=O)(=O)N2CCOCC2)c1)C(=O)c1ccc(C#N)cc1	inconclusive: 32.6 µM [inhibitor, single point]
CN(CC(=O)Nc1ccc(Cl)cc1)C(=O)c1sccc1-c1ccccc1	inconclusive: 20.6 µM [inhibitor, single point]

A portion taken from the entries so far, for reference:
SMILES	Potency
COc1ccc(NC(=S)N2CCN(c3ccccn3)CC2)cc1OC	inactive
COc1ccc(C(=O)/C=C/C(=O)N(CC(=O)NC2CCCCC2)Cc2ccccc2)c(O)c1	inconclusive: 29.1 µM [inhibitor, single point]
N#Cc1ccccc1Sc1ccccc1C(=O)OCC(=O)NC12CC3CC(CC(C3)C1)C2	active: 20.6 µM
Cc1cccc(NC(=S)NNC(=O)c2ccc3c(c2)OCO3)c1	inconclusive: 8.2 µM [activator, partial curve]
O=C1C=C(c2ccc(-c3ccccc3)cc2)C[C@@H](c2ccc(F)cc2)C1	inconclusive: 20.6 µM [inhibitor, single point]

The list continues.

SMILES	Potency
C/C(NC(=O)c1ccccc1F)=C1\C(=O)C[C@@H]2[C@H]1C2(C)C	inconclusive: 14.6 µM [activator, partial curve]
COc1ccc(S(=O)(=O)N2CCCCCC2)cc1C(=O)N(C)Cc1ccc(OC)c(OC)c1OC	inconclusive: 18.3 µM [inhibitor, single point]
CN(CC(=O)Nc1ccccc1Cl)C(=O)c1cccc(S(=O)(=O)N2CCN(c3ccc(F)cc3)CC2)c1	inconclusive: 2.59 µM [activator, full curve]
COc1ccc(C(C(=O)NCC2CCCO2)N(C(=O)CNC(=O)c2ccco2)c2cc(C)cc(C)c2)cc1OC (centres undefined)	inactive
O=C(O)Cn1c(=O)cnc2ccccc21	inactive
CCCCC(=O)Oc1c(S(=O)(=O)c2ccc(C)cc2)c(C)nn1C(C)(C)C	inconclusive: 20.6 µM [inhibitor, single point]
Cc1onc(-c2ccccc2Cl)c1C(=O)Nc1nnc(-c2ccc(Br)cc2)s1	inactive
CCCCN1C(=O)CC(Nc2ccc(CC)cc2)C1=O (centres undefined)	inconclusive: 10.3 µM [activator, partial curve]
COC(=O)CCC(=O)OC1(C)C(=O)C=C2C=C(C3CC3)N(Cc3ccc4c(c3)OCO4)C=C2C1=O (centres undefined)	inactive
COC(=O)C[C@H](NC(=O)Cn1cnc(C(=O)Nc2ccc(C)c(C)c2)n1)C(=O)OC	inconclusive: 20.6 µM [activator, partial curve]
Nn1c(SCc2ccc(F)cc2)nnc1-c1ccncc1	inconclusive: 29.1 µM [activator, single point]
CSc1ccc(CNc2ncc(-c3cccc([N+](=O)[O-])c3)n2C)cc1	inactive
O=C1CCCN2N=C(SCC(=O)Nc3ccccc3C(F)(F)F)SC2=N1	inactive
NC(=O)c1ccc(N2CCN(c3ccccc3F)CC2)c([N+](=O)[O-])c1	inconclusive: 9.2 µM [inhibitor, partial curve]
CCN(CC)S(=O)(=O)c1ccc(N(C)Cc2cccc(OC)c2OC)nc1	active: 13 µM
Cc1ccsc1/C=N/NC(=O)CO	inconclusive: 32.6 µM [activator, partial curve, poor fit]
Cc1ccc(CCNC(=O)C2CCC(CNc3c(N4CCC(C)CC4)c(=O)c3=O)CC2)cc1 (centres undefined)	inconclusive: 32.6 µM [inhibitor, single point]
CC1CCCCC12NC(=O)N(CC(=O)NC(=O)Nc1ccc3c(c1)OCCO3)C2=O (centres undefined)	inconclusive: 9.2 µM [activator, partial curve]
CC(OC(=O)c1cnc(Cl)c(Cl)c1)C(=O)NCc1ccccc1 (centres undefined)	inconclusive: 35.5 µM [activator, partial curve, poor fit]
Cc1ccc2[nH]c3c(c2c1)CN(C(=O)CN1CCN(c2cccc(C)c2C)CC1)CC3	inconclusive: 29.1 µM [inhibitor, single point]
O=C(Nc1ccccc1)N1CCC(C(=O)N2CCCC(C(F)(F)F)C2)CC1 (centres undefined)	inactive
Nc1ccc(C(=O)N/N=C/c2cn(Cc3cccc(F)c3)c3ccccc23)cc1	inactive
O=C(/C=C/c1ccccc1)NC(=S)Nc1ccccc1	inconclusive: 8.91 µM [activator, partial curve, poor fit]

SMILES	Potency
CCCC1=Nc2cc(C(=O)NCCCN3CCN(C)CC3)ccc2Sc2ccccc21	inactive
CCc1ccc2c(c1)C(=O)c1ccccc1C2=O	inconclusive: 10.3 µM [activator, partial curve]
CCN(C(=O)CSc1nnc(Cn2nnc3ccccc32)o1)c1nc(C)cs1	inconclusive: 10.3 µM [inhibitor, partial curve]
CCOC(=O)C1CCCN(C(=O)c2cc(-c3ccccc3)on2)C1 (centres undefined)	inconclusive: 25.9 µM [activator, single point]
c1cncc(-c2nc3ccccc3s2)c1	inconclusive: 11.6 µM [activator, partial curve]
Cc1cc(C(=O)N(C)CC(=O)Nc2ccc(Cl)c(C(F)(F)F)c2)no1	inactive
COc1ccc(OC)c2sc(NC(=O)CCSc3ccccc3)nc12	inconclusive: 9.2 µM [inhibitor, partial curve]
COc1ccc(CNc2cccc3[nH]c(C(F)(F)F)nc23)cc1	inconclusive: 32.6 µM [inhibitor, single point]
O=C(COc1ccccc1Br)NC(=O)NC1CCCC1	inconclusive: 20.6 µM [activator, partial curve]
CC(=O)N(C(C)=O)c1nc(-c2ccccc2)cn1/N=C/c1cccc([N+](=O)[O-])c1	inconclusive: 18.3 µM [inhibitor, single point]
O=C1CCN(CCCc2ccccc2)CCN1[C@H](CO)Cc1ccccc1	inactive
COc1ccccc1N1CCN(C(=O)C2CCN(C(=O)c3ccccc3Cl)CC2)CC1	inconclusive: 29.1 µM [inhibitor, single point]
COc1ccccc1/C=C/C(=O)N1CCN(S(=O)(=O)c2cc(C)ccc2C)CC1	inconclusive: 35.5 µM [inhibitor, single point]
COc1cccc(C(=O)CC(=O)C(=O)Nc2cc(Cl)c(OC)cc2OC)c1	inconclusive: 18.3 µM [inhibitor, single point]
CCOc1ccc(NC(=O)Cn2cc(C(=O)CC)c3ccccc32)cc1	inactive
O=C(Cn1cnc2cc([N+](=O)[O-])ccc2c1=O)Nc1ccccc1Cl	inconclusive: 29.1 µM [inhibitor, single point]
COc1ccc(C)cc1NC(=O)CN(C)S(=O)(=O)c1cnc[nH]1	inactive
CC(=O)/C(=N/Nc1ccc(Br)cc1)N1CCCc2ccccc21	inconclusive: 23.1 µM [inhibitor, single point]
COc1ccc(N/C(N)=N/c2nc(CSc3ccc(Cl)cc3)cc(=O)[nH]2)cc1	inactive
O=C(N/N=C/c1cc(Br)c(Br)o1)C(O)c1ccccc1 (centres undefined)	inconclusive: 29.1 µM [activator, partial curve, poor fit]
COc1ccc(/C=C/C(=O)Nc2nnc(C(C)C)s2)cc1OC	inconclusive: 0.231 µM [activator, single point]
Clc1ccc(OCc2nc(-c3ccncc3)no2)c(Cl)c1	inconclusive: 9.2 µM [activator, partial curve]
C=C1C(O)[C@@H]2O[C@]3(CC[C@H](/C=C/C(C)[C@@H]4CC(C)=CC5(O[C@H](C[C@@](C)(O)CO)CCC5O)O4)O3)CC[C@H]2O[C@@H]1C(O)CC(C)[C@H]1OC2(CCCCO2)CCC1C (some centres undefined)	inconclusive: 10.3 µM [inhibitor, partial curve, poor fit]
